Assay results reported in patent US20120196858A1, “METHOD OF PROMOTING APOPTOSIS AND INHIBITING METASTASIS” (Poniard Pharmaceuticals ,Inc., priority 2009, published 2012).
For at least one compound, name, drawing or mass did not settle the structure.

Protein sequences, listed by entry. Tags and fused reporters are not part of them.
UniProt P34152, whole entry: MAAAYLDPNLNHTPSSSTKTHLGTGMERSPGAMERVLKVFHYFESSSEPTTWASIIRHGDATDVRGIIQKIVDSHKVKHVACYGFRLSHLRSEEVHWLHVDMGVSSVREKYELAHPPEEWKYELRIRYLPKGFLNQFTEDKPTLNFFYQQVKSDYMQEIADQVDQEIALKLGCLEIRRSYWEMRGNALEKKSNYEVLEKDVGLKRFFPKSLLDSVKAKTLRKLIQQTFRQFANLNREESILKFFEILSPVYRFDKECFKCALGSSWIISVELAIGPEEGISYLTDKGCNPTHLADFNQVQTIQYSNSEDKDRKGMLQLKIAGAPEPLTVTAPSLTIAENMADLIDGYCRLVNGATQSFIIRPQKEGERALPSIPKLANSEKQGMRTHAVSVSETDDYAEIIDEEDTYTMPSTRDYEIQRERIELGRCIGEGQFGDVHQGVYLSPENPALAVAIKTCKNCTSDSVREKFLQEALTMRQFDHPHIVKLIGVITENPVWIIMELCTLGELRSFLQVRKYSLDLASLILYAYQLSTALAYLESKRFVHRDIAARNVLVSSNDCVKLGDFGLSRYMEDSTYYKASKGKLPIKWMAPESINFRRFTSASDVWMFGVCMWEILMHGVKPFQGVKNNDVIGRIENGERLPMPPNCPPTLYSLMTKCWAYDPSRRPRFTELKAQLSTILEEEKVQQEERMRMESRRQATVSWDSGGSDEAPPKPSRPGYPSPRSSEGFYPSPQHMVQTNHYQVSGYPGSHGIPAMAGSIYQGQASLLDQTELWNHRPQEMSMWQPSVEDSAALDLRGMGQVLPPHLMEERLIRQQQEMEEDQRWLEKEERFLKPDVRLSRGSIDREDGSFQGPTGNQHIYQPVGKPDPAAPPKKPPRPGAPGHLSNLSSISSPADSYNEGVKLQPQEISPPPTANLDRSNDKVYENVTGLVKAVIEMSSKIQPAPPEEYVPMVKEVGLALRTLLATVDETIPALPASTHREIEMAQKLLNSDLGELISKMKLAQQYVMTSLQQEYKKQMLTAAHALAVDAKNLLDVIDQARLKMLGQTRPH

What was measured:
Assay type in all cases: cell-based, murine
[1] = system: p130Cas tyrosine phosphorylation (pY249, pY410); test: Phospho-specific immunoblotting of p130Cas in 4T1 cells; conditions: adherent 4T1 cells, 1 h; PND-1186 to 1 μM
Source text: (§1) Immunoblotting: Protein extracts of cells were made using lysis buffer containing 1% Triton X-100, 1% sodium deoxycholate, and 0.1% SDS and were separated by 4-12% SDS-PAGE (sodium dodecyl sulfate polyacrylamide gel electrophoresis) and sequential immunoblotting performed as described in Mitra S K, Lim S T, Chi A, Schlaepfer D D. Intrinsic focal adhesion kinase activity controls orthotopic breast carcinoma metastasis via the regulation of urokinase plasminogen activator expression in a syngeneic tumor model. Oncogene 2006; 25:4429-40. Relative expression levels and phospho-specific antibody reactivity were measured by densitometry analyses of blots using Image J (version 1.42q). Inhibition of FAK and p130Cas tyrosine phosphorylation was quantified by calculating the ratio of pY397 FAK protein to total FAK. Similar analyses were performed for p130Cas using pY410 p130Cas and total p130Cas blot data.

[2] = target: T1, FAK Tyr-397 phosphorylation (Mus musculus, UniProt P34152); test: Anti-phospho-specific immunoblotting of FAK pY397 in 4T1 cells; conditions: adherent 4T1 cells, 1 h
T1 construct: endogenous in cells; host or cells: 4T1 murine mammary carcinoma cells
Source text: as §1

4T1 cells = test: Cell adhesion to fibronectin

**Q.** Which results are given for `Cc1nc(Nc2ncc(C(=O)Nc3c(C)cccc3Cl)s2)cc(N2CCN(CCO)CC2)n1` [dasatinib, reference compound]?
**A.** p130Cas pY249 phosphorylation [1]: reduced in a dose-dependent manner; FAK pY397 levels with Src inhibitors [2]: did not affect FAK pY397 levels; effect on 4T1 cell adhesion to fibronectin (4T1 cells): as did dasatinib addition at sub-micromolar levels
